# Some results were stated once for a whole list of compounds, not compound by compound.
# Assay: Evaluation of lamellar-formation ability (X-ray diffraction)
# Assay type: physicochemical
# Description: Evaluation of lamellar-formation ability was conducted according to the method by Mizushima et al. (Lipids, 30(4), 327-332 (1995)).
# Each of stearic acid and cholesterol, used as representatives of fatty acids that are horny layer intercellular lipids, as well as a sample to be evaluated was weighed to give an equimolar mixture, and an ion-exchange water was added thereto in an amount of 30 wt % of the weight of the lipids. The mixture was heat-melted and then cooled to give an evaluation sample.
# Wide-angle X-ray diffraction apparatus ((PANalytical) X' Pert MRD High Resolution X-ray Diffractometer)
# Small-angle X-ray scattering apparatus ((NANO Viewer manufactured by RIGAKU Corporation), Small-angle X-ray scattering)
# In the case where the wide-angle X-ray diffraction apparatus was used, sampling for measurement was conducted by finely grinding a sample in an agate mortar and packing the sample in a measurement cell to give a flat surface. In the case of small-angle X-ray scattering apparatus, the sample was packed in a cell made of stainless steel having grid openings of approximately 4 mm in width and 2 mm in depth.
# Conditions for wide-angle X-ray diffraction measurement: measurement cell: a cell for exclusive use made of stainless steel, applied voltage: 45 kV, applied current: 40 mA.
# measured range: 2θ=3° to 45°, measurement speed: 2θ=1°/min.
# Conditions for small-angle X-ray measurement: measurement cell: a sample that was packed in a stainless steel holder having grid openings was measured.
# applied voltage: […], applied current: 30 mA, X-ray irradiation period: 30 minutes, measured at a camera length of from 450 to 650 mm using a detector with an imaging plate.
# In a wide-angle X-ray diffraction measurement, a symbol A was assigned to a sample wherein diffraction peaks originating from crystals of stearic acid and cholesterol disappeared and only the peaks originating from a lamellar structure were observed near 2θ=22°, a symbol B was assigned to a sample wherein diffraction peaks originating from crystals of stearic acid and cholesterol remained but peaks originating approximately from a lamellar structure were observed, a symbol C was assigned to a sample wherein peaks originating from a lamellar structure were observed only partly, and a symbol D was assigned to a sample wherein no peaks originating from a lamellar structure were observed. In addition, in a small-angle X-ray measurement, a symbol E was assigned to a sample wherein diffraction peaks originating from a periodic structure of lamellar structure were observed, and a symbol F was assigned to a sample wherein no diffraction peaks were observed.
row,Substance,Formation of a lamellar structure together with stearic acid and cholesterol (in words)
1,"2-(hexadecyl/octadecyl)-N,N,-bis(2-hydroxyethyl)succinamide [Compound 2]",could form a lamellar structure together with stearic acid and cholesterol
2,"(E)-2-(hexadeca/octadeca)-2-en-1-yl)-N,N,-bis(1-hydroxypropan-2-yl)succinamide [Compound 4]",could form a lamellar structure together with stearic acid and cholesterol
3,"(E)-N,N,-bis(1,3-dihydroxy-2-(hydroxymethyl)propan-2-yl)-2-((hexadeca/octadeca)-2-en-1-yl)-succinamide [Compound 7]",could form a lamellar structure together with stearic acid and cholesterol
4,"(E)-N,N,-bis(1,3-dihydroxy-2-methylpropan-2-yl)-2-((hexadeca/octadeca)-2-en-1-yl)-succinamide [Compound 6]",could form a lamellar structure together with stearic acid and cholesterol
5,"(E)-N,N,-bis(3-hydroxypropyl)-2-((hexadeca/octadeca)-2-en-1-yl)-succinamide [Compound 3]",could form a lamellar structure together with stearic acid and cholesterol

# Source: US10143667B2, “Ceramide-like function imparting agent” (KAO CORPORATION, priority 2013, dated 2018)
